Results are given in words; binding and its absence hold for the method and conditions named. In cells and extracts the contact can be indirect. Some entries that bind do so weakly or less than the wild type.
Molecular target: FRBT2098L-HA-hTAC (UniProt P01589)
Experiment: co-IP; co-immunoprecipitation with an anti-HA antibody in hTAC-HeLa cell lysates; elution immunoblotted

The chains behind the UniProt entries cited, without tags or fusion partners. Residues count along the entry.
UniProt P01589, residues 22-272: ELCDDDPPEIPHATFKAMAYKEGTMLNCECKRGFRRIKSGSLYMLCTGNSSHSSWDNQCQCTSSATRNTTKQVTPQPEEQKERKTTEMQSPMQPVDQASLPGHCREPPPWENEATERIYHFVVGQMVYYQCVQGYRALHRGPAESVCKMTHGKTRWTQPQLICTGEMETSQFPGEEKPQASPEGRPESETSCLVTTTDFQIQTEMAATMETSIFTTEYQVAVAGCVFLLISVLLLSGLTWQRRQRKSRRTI
UniProt O95782: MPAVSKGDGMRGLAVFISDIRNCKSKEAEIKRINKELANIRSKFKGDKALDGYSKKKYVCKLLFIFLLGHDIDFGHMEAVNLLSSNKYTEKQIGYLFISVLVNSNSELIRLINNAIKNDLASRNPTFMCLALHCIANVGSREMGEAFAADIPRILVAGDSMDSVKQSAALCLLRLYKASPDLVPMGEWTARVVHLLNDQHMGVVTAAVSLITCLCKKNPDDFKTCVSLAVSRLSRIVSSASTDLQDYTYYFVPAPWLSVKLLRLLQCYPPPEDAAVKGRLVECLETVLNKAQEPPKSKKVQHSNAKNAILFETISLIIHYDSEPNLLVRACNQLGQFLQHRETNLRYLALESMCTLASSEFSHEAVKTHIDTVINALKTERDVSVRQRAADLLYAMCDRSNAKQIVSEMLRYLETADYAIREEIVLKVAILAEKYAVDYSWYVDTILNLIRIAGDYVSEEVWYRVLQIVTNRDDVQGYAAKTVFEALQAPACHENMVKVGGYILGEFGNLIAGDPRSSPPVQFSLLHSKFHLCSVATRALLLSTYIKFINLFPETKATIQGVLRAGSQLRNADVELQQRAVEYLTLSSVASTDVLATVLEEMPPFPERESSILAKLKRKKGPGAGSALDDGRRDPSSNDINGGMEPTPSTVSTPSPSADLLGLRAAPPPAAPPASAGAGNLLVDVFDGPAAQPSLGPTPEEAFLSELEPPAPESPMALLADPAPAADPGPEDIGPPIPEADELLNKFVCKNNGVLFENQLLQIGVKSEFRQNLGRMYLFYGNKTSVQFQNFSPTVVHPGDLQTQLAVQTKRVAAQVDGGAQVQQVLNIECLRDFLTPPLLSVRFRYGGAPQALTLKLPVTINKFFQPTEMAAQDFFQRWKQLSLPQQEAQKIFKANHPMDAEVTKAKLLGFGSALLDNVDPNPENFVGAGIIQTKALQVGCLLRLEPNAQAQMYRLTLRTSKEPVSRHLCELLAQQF
UniProt P63010: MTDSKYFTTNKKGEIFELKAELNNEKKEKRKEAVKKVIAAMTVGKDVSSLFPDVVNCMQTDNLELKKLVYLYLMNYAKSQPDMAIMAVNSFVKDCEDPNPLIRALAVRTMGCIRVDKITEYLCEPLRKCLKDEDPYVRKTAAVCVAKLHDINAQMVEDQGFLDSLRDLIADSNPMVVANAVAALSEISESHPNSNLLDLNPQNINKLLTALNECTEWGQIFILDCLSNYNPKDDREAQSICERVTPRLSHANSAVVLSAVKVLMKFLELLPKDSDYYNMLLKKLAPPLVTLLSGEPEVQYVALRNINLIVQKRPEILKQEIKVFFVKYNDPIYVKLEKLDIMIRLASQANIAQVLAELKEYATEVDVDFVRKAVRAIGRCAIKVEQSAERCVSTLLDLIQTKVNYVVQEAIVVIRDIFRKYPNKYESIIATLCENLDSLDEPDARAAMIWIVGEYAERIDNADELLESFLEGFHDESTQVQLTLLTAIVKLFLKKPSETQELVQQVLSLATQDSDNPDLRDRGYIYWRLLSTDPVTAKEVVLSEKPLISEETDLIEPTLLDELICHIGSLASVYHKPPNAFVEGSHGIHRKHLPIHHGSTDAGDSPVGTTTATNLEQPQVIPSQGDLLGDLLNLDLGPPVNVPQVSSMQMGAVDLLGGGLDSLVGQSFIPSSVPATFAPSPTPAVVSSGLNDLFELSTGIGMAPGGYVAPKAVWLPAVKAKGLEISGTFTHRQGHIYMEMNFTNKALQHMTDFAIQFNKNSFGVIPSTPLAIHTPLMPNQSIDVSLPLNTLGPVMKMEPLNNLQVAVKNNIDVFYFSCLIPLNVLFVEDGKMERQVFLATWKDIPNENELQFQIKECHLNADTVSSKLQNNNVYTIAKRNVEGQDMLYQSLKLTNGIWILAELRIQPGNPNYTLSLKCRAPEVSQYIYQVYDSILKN
UniProt Q00610: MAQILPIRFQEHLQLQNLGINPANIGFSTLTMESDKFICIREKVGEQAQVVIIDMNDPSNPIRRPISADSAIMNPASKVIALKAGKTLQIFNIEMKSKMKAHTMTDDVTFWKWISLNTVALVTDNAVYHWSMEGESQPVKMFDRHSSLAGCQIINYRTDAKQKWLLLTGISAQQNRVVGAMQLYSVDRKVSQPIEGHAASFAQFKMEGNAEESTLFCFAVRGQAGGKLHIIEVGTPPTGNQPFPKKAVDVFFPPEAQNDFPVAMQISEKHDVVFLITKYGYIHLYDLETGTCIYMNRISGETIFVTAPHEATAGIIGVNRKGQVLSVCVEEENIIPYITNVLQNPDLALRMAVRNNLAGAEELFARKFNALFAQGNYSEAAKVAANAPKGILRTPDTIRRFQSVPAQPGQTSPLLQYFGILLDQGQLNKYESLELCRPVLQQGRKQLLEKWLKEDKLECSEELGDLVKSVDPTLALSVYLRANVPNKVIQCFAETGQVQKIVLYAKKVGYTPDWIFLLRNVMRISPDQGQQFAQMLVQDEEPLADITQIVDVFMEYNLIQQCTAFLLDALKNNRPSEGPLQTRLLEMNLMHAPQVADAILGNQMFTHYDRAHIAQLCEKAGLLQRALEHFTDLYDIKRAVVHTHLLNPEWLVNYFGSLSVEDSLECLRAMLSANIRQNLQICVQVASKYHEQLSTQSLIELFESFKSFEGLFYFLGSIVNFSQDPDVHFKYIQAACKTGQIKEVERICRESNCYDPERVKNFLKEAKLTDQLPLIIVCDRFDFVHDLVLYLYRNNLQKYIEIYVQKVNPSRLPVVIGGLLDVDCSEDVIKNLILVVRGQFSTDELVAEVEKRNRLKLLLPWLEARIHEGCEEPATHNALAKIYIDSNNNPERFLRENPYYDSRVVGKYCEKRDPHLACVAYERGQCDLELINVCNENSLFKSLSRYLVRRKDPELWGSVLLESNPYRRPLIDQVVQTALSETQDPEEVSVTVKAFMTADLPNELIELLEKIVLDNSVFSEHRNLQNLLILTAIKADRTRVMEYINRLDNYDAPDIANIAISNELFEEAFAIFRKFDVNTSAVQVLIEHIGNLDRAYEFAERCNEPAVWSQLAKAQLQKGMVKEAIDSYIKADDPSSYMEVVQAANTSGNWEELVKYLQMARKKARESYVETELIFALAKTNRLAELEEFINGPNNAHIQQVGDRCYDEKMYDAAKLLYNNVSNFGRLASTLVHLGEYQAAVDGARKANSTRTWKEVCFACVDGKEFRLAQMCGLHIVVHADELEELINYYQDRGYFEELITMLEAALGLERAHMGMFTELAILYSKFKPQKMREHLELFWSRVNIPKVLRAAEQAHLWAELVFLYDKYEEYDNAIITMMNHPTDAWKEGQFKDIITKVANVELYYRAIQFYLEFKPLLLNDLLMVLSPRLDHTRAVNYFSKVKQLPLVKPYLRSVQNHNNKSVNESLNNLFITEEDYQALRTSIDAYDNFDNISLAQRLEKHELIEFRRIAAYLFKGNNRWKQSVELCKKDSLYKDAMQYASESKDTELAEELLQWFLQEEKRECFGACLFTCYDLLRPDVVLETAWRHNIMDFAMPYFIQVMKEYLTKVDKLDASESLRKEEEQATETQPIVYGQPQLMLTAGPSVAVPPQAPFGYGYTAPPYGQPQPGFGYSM

binding | Substance
binds weakly | AP2A1 (from UniProt O95782 1-977)
binds weakly | AP2B1 (from UniProt P63010 1-937)
binds weakly | CLTC (from UniProt Q00610 1-1675)
